This note sets out measurements from ChEMBL document CHEMBL5046241, “The novel therapeutic strategy of vilazodone-donepezil chimeras as potent triple-target ligands for the potential treatment of Alzheimer's disease with comorbid depression” (Eur J Med Chem, 2022).

This series can be described thus: in vitro. The settings on record: PAMPA.

As for `COc1cc2c(cc1OC)C(=O)C(CC1CCN(Cc3ccccc3)CC1)C2` (stereo unspecified) [DONEPEZIL], the Papp was determined as 2.1 ×10⁻⁶ cm/s.
